Among the data in PubChem BioAssay AID445 (National Center for Advancing Translational Sciences (NCATS), 2006) are AC50 values, retold here.

The other results are listed elsewhere or left out. Further columns of the screen follow, without active or inactive calls. Compounds called inactive in the main read-out are mostly missing here. The note in brackets gives the kind of curve behind each potency; many fits are weak.

A short description of the assay: IkB Signaling. Conditions: ABC-DLBCL IkBa-CBG/CBR dual luciferase ratio (green luciferase fused to IkBa over red control in OCI-Ly3 lymphoma cells), 4 h. The method in brief: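 Luminescence ratio of IκBα-fused green versus native red beetle luciferase in OCI-Ly3 cells, 4 h post-doxycycline with compound; red signal alone, scaled from basal (0%) to zero light (-100%), flagged nonspecific or cytotoxic effects.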
[1] abbreviates: measured here: IkB-luc green channel.
Setting [2] is: measured here: control luc red channel.
Where [3] appears, read: measured here: control luc red channel unless noted.

For orientation: AC50 means the concentration at which the activity in the assay is half-maximal. With `Fc1cccc2sc(Nc3nnc(-c4ccco4)o3)nc12`, the AC50 is, setting by setting: under setting [1], 5.01 µM [rising, partial curve]; under setting [2], 0.00794 µM [falling, full curve].
`Cc1nnc(NC(=O)c2sc3ccccc3c2Cl)s1`: the AC50 under setting [3] is 39.8 µM [falling, single point].
Same read-out and setting: to `O=C(NCc1ccco1)c1cccn2c(=O)c3cc(Br)ccc3nc12` belongs 15.8 µM [falling, partial curve]; to `Cc1ccc(NC(=O)CN2C(=O)C(c3ccc(F)cc3)=NC23CCCCC3)c(C)c1`, 10 µM [falling, single point]; to `Cc1ccc(C)c(Cn2c(C(C)NC(=O)c3ccc(F)cc3)nc3ccccc32)c1` (stereo not drawn), 39.8 µM [falling, single point].
For the compound `CCN(c1ccccc1)S(=O)(=O)c1cc(-c2onc(C)c2C)ccc1OC`, under setting [3], the AC50 was 10 µM [falling, partial curve].
As for `Cc1c2cnn(CC(=O)N3CCN(c4ccccc4)CC3)c(=O)c2c(C)n1Cc1ccc(F)cc1`, the AC50 under setting [3] was 15.8 µM [falling, partial curve].
Consider `CCOc1ccccc1NC(=O)CCS(=O)(=O)c1cccc2nsnc12`, for which the AC50 under setting [3] is 39.8 µM [rising, single point].
For `CC1(C)CC(=O)C2=C(C1)OC1=C(C(=O)CC(C)(C)C1)C2c1ccc(O)cc1O`, the AC50 reads like this: under setting [1], 1.26 µM [rising, single point]; under setting [2], 7.94 µM [falling, full curve].
Take `CCOCCCNC(=O)C(c1ccccc1)N(Cc1cccs1)C(=O)c1ccc(NC(C)=O)cc1` (stereo not drawn): the AC50 under setting [3] is 3.98 µM [falling, full curve].
On the same count and under the same terms, the figure for `COc1cccc(N2C(=O)C(CC(=O)Nc3ccc(Cl)cc3)N(Cc3ccc4c(c3)OCO4)C2=O)c1` (stereo not drawn) is 25.1 µM [falling, partial curve]; for `Cc1cccc(N2CCN(C(=O)C3CCCN(S(=O)(=O)c4cccc5nsnc45)C3)CC2)c1C` (stereo not drawn) it is 39.8 µM [falling, single point]; for `Cc1cccc(-c2noc(CCCC(=O)NCc3ccco3)n2)c1` it is 25.1 µM [falling, single point].
`O=C(NCCc1c[nH]c2ccccc12)c1c(Cl)nc2sccn12`: under setting [3], the AC50 was 0.398 µM [rising, full curve, poor fit].
Same read-out and setting: to `Cc1ccc(Nc2ncnc3c2cnn3-c2ccccc2)c(C)c1` belongs 12.6 µM [falling, partial curve].
Same read-out and setting: to `COc1cccc(CNC(=O)c2cc3cccc4c3n2CC(C)S4)c1OC` (stereo not drawn) belongs 20 µM [falling, partial curve]; to `COc1cc2c(=O)c(S(=O)(=O)c3ccc(F)cc3)cn(Cc3ccccc3C)c2cc1OC`, 15.8 µM [falling, partial curve].
On the same count and under the same terms, to `Cc1ccc(-n2cc(-c3ccccc3)c3c(NC4CCCC4)ncnc32)cc1` belongs 3.98 µM [rising, partial curve, poor fit]; to `Cc1ccc(-c2noc(-c3ccc(N4CCC(C)CC4)c([N+](=O)[O-])c3)n2)cc1`, 1.58 µM [rising, full curve]; to `O=C(Cc1ccccc1)N(Cc1cccnc1)c1nc2c(F)cccc2s1`, 25.1 µM [falling, single point].
Consider `COc1cccc(C(=O)NC2CC3CCCC(C2)N3CC(=O)Nc2ccccc2)c1` (stereo not drawn), for which the AC50 under setting [3] is 20 µM [falling, partial curve].
Same read-out and setting: to `CCOc1cccc2cc(-c3cn4c(n3)sc3cc(C)ccc34)c(=O)oc12` belongs 0.631 µM [falling, full curve]; to `Cc1cc(C)c2c(CC(=O)Nc3ccc(S(=O)(=O)N4CCCC(C)C4)cc3)coc2c1` (stereo not drawn), 15.8 µM [falling, partial curve].
The same measure, in the same setting: to `Cc1ccc(OCC(=O)Nc2cccc(OCc3cc(=O)n4ccccc4n3)c2)cc1C` belongs 0.251 µM [falling, full curve]; to `Cc1cc(C)cc(OCCn2c(C3CC(=O)N(c4ccccc4Cl)C3)nc3ccccc32)c1` (stereo not drawn), 39.8 µM [falling, single point]; to `O=C(Nc1nc2ccccc2s1)C1CCCO1` (stereo not drawn), 12.6 µM [falling, partial curve].
Still for that read-out and setting: the figure for `COc1ccc(CCNC(=O)CCn2c(=O)c3ccccc3n(CC(=O)Nc3ccccc3F)c2=O)cc1OC` is 0.00794 µM [falling, full curve, poor fit]; for `CC(C)(C)c1ccc(C2Sc3ccccc3NC3=C2C(=O)c2ccccc23)cc1` (stereo not drawn) it is 15.8 µM [falling, partial curve]; for `CCOC(=O)c1cc(S(=O)(=O)Nc2ccc(Br)c(C)c2)[nH]n1` it is 15.8 µM [falling, partial curve].
As to `Cc1ccc2c(c1)c1c(c(=O)n(-c3cccc(Cl)c3)c(=O)n1CC(=O)N1CCCC1)n2C`, the AC50 under setting [3] is 39.8 µM [falling, single point].
On the same count and under the same terms, the figure for `COc1ccc(Br)cc1CNC(=O)c1cc2ccccn2n1` is 25.1 µM [falling, partial curve].
On to `Cn1c(CN2CCCCC2)nc2cc(NC(=O)c3cccc(Br)c3)ccc21`, for which the half-maximal activity concentration (AC50) under setting [3] was 0.631 µM [falling, full curve].
In the case of `CC(C)(C)c1csc(NC(=O)c2cccs2)n1`, under setting [3], the AC50 was 12.6 µM [falling, single point].
The same measure, in the same setting: the figure for `CCC(C(=O)Nc1ccccc1C(=O)OC)n1c(C)c2cnn(-c3ccccc3)c(=O)c2c1C` (stereo not drawn) is 15.8 µM [falling, single point].
As for `CCOc1ccccc1Oc1cn[nH]c1-c1ccc(OC)cc1O`, the AC50 under setting [3] is 15.8 µM [falling, partial curve].
On the same count and under the same terms, the figure for `COc1ccc(Cn2c(C(=O)O)c(CNCc3cccc(OC)c3)c3ccc(C)cc32)cc1` is 25.1 µM [falling, partial curve, poor fit]; for `CCCCN(CC)CCNC(=O)Cn1cnc2sc(C)c(S(=O)(=O)N3CCC(C)CC3)c2c1=O` it is 0.0501 µM [falling, partial curve, poor fit].
On the same count and under the same terms, to `COC(=O)c1cnn(-c2ccc(C(=O)Nc3cccc(C(C)=O)c3)cc2)c1N` belongs 12.6 µM [falling, partial curve]; to `Cn1c(=O)oc2cc(S(=O)(=O)N3CCC(C(=O)NCc4ccccc4Cl)CC3)ccc21`, 25.1 µM [rising, partial curve, poor fit]; to `Cc1c(/C=N/n2cnnc2)c2ccccc2n1CCOc1ccc(Cl)cc1`, 39.8 µM [rising, single point] [measured here: IkB-luc green channel].
Take `O=C1CN(C(=O)Cc2ccc(F)cc2)C(c2ccccc2)c2cc(Br)ccc2N1` (stereo not drawn): the AC50 under setting [3] is 12.6 µM [falling, partial curve].
Same read-out and setting: the figure for `Cc1ccc(NC(=O)CN2CCC3(O)CCCCC3C2c2ccc3c(c2)OCO3)c(C)c1` (stereo not drawn) is 12.6 µM [falling, partial curve]; for `CCOC(=O)c1[nH]c(C)c(CCC(=O)Nc2c(C)cc(C)cc2C)c1C` it is 12.6 µM [rising, partial curve].
On the same count and under the same terms, to `CCCn1c(SCc2nc(-c3ccccc3C)no2)nnc1-c1ccc(Cl)cc1` belongs 25.1 µM [falling, partial curve].
Still for that read-out and setting: to `COc1ccc(N2C(=O)CSC23C(=O)N(CC(=O)NC2CCCCC2)c2ccccc23)cc1` (stereo not drawn) belongs 12.6 µM [falling, single point].
For the compound `O=C(NCCc1c[nH]c2ccccc12)C1Cc2ccccc2CN1C(=O)c1ccco1` (stereo not drawn), the half-maximal activity concentration (AC50) under setting [3] was 12.6 µM [falling, partial curve].
Same read-out and setting: the figure for `COc1cccc(NC(=O)Cn2c(=O)n(-c3ccc(CC(=O)NCC4CCCO4)cc3)c(=O)c3ccccc32)c1` (stereo not drawn) is 10 µM [falling, partial curve, poor fit]; for `COc1cc(NC(=O)CSCc2cnn(-c3ccccc3)c2-n2cccc2)cc(OC)c1` it is 15.8 µM [falling, partial curve].
For the compound `Cc1cc(C)cc(NC(=O)NCCn2nnc3cc(S(=O)(=O)N(C)C)ccc32)c1`, the AC50 under setting [3] was 31.6 µM [falling, single point].
Take `CSc1nc(C)c(C(=O)Nc2ccccc2)c(C)c1C#N`: under setting [3], the AC50 was 15.8 µM [falling, partial curve].
Consider `CCOc1ccc(C(=O)OCc2cc(=O)n3nc(C4CCCCC4)sc3n2)cc1`, for which, under setting [3], the AC50 was 10 µM [falling, single point].
On the same count and under the same terms, the figure for `COc1ccc(C2c3c(-c4ccccc4O)n[nH]c3C(=O)N2Cc2ccco2)cc1` (stereo not drawn) is 25.1 µM [falling, single point]; for `O=C(Nc1ccccc1C(=O)OCc1cc(=O)n2nc(C3CC3)sc2n1)c1cccc(Cl)c1` it is 10 µM [falling, partial curve]; for `Cc1ccc(Cl)cc1NC(=O)Cn1c(=O)c(CNc2ccccc2)cc2cc3c(cc21)OCCO3` it is 12.6 µM [falling, partial curve].
Same read-out and setting: to `CCCCn1c(-c2ccc(S(=O)(=O)N3CCOCC3)cc2)csc1=Nc1ccccc1` belongs 3.98 µM [falling, full curve].
On the same count and under the same terms, the figure for `CCN(c1cccc(C)c1)S(=O)(=O)c1nnc(NC(=O)c2cccs2)s1` is 0.794 µM [rising, full curve]; for `O=C(CCCn1c(=O)c2cccn2c2cccnc21)NCCc1ccc(Cl)cc1` it is 39.8 µM [falling, single point].
As to `Cc1cc(Br)ccc1NC(=O)c1cc2c(s1)-c1ccccc1SC2`, the AC50 under setting [3] is 10 µM [falling, partial curve].
Same read-out and setting: to `CCOC(=O)c1ccccc1NC(=O)CN(c1ccccc1OC)S(=O)(=O)c1ccc(C)cc1` belongs 1 µM [falling, full curve, poor fit].
On the same count and under the same terms, the figure for `CS(=O)(=O)N(CC(=O)N1CCN(c2ccccc2)CC1)c1cc(C(F)(F)F)ccc1Cl` is 10 µM [falling, partial curve]; for `COc1ccc(NS(=O)(=O)c2nnc(NC(=O)c3ccccc3F)s2)cc1` it is 2.51 µM [rising, partial curve].
